In all, about 360,000 compounds went through this assay and about 7,500 (2.1%) were called active. Inconclusive means that the source gave no clear call. Such entries were picked first, then a sample of the others. Calls follow the shape of the dose curve; as a rule, active = well fitted inhibition curve with a large enough effect; inconclusive = small, poorly fitted or top-dose-only effect, or effect the other way; inactive = flat fitted curve, though single readings scatter. Potencies of inconclusive entries are doubtful fits and often do not repeat.
Assay: Nrf2 qHTS screen for inhibitors; also: nearly all actives have a fitted effect of over 60% in size
Conditions: A549 ARE-Fluc reporter, luciferase luminescence, 18-24 h; activity change, negative = inhibition: at 46 µM (top of the series)
How it was run: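 Quantitative HTS in A549 cells stably bearing an antioxidant response element-firefly luciferase construct. Inhibition of Nrf2-driven transcription was scored by luminescence after 18-24 h of compound exposure at 37 °C.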
With `COc1cc2oc3ccc(C#Cc4ccccn4)cc3c(=O)c2cc1OC` the “activity change, negative = inhibition” value was inactive: -9.23%.
For `C=CCNc1ncnc2c1[nH]c1ccc(C)cc12`, the Potency was inconclusive: 16.4 µM [falling, single point].
With `CCOc1ccc(C(=O)Nc2cccc(-c3ccc4nncn4n3)c2)cc1` the Potency was inconclusive: 3.66 µM [falling, partial curve].
With `CCN(CC)c1ccc(/C=C/C(=O)c2cccnc2)cc1` the Potency was inconclusive: 18.4 µM [falling, single point].
In the case of `COCc1cc(C)nc(OCC(=O)N/N=C/c2ccccc2O)c1C#N`, the “activity change, negative = inhibition” value is reported as inactive: 0.847%.
In the case of `O=C(CSc1ncnc2sc3c(c12)CCCC3)NC1CCS(=O)(=O)C1` (stereo unspecified), the “activity change, negative = inhibition” value is reported as inactive: -20.8%.
For `COc1cc(/C=c2/sc3nc(-c4ccccc4)c(-c4ccccc4)n3c2=O)cc(OC)c1OC`, the Potency was inconclusive: 7.31 µM [activator, partial curve, poor fit].
In the case of `CC1=CC(=C2N=C(c3ccccc3)OC2=O)C=C(C)O1`, the Potency is reported as inconclusive: 29.1 µM [activator, single point].
In the case of `Cc1cccc(CSc2ccc(-c3cccs3)nn2)c1`, the Potency is reported as inconclusive: 2.59 µM [activator, full curve].
In the case of `COc1ccc(-c2noc(CSc3nnc(C)n3-c3ccc(C)c(C)c3)n2)c(OC)c1`, the “activity change, negative = inhibition” value is reported as inactive: -28.8%.
With `COc1cccc2cc(-c3nc4ccccc4[nH]3)c(=O)oc12` the Potency was inconclusive: 6.51 µM [activator, partial curve].
For `Cn1ncc([N+](=O)[O-])c1C(=O)NC1CCCCC1`, the “activity change, negative = inhibition” value was inactive: 7.8%.
For `C(=C\c1cc(/C=C/c2ccccc2)ncn1)/c1ccccc1`, the Potency was inconclusive: 29.1 µM [activator, single point].
In the case of `Cc1ccc2onc(CC(=O)N3CCN(c4ccccc4)CC3)c2c1`, the “activity change, negative = inhibition” value is reported as inactive: -2.91%.
In the case of `CN(C)S(=O)(=O)c1cccc(NC(=O)Cc2ccc(Cl)cc2)c1`, the Potency is reported as inconclusive: 13 µM [falling, partial curve].
In the case of `c1ccc2c(N3CCCC3)nc(-c3ccncc3)nc2c1`, the Potency is reported as inconclusive: 29.1 µM [falling, single point].
For `Cc1sc2ncnc(N3CCC(C(=O)NNC(=O)c4ccc(Cl)cc4)CC3)c2c1C`, the Potency was inconclusive: 25.9 µM [falling, single point].
For `COc1ccccc1O`, the Potency was inconclusive: 7.31 µM [falling, partial curve, poor fit].
With `CCOc1ccc(NC(=O)C(C)n2c(=O)cc(C)c3c(C)nn(-c4ccccc4)c32)cc1` (stereo unspecified) the “activity change, negative = inhibition” value was inactive: 11.8%.
With `O=C(c1cc(COc2c(F)cccc2F)on1)N1CCC(c2ccncc2)CC1` the Potency was active: 7.31 µM.
In the case of `CCc1ccc(OCC(=O)Nc2ccc3c(c2)c2ccccc2n3CC)c(Br)c1`, the Potency is reported as inconclusive: 0.0058 µM [falling, full curve, poor fit].

Source: PubChem BioAssay AID504444 (National Center for Advancing Translational Sciences (NCATS), 2011)
% is scaled to controls: 0 for no effect and ±100 for the full control effect; potency is read from the fitted curve at half-maximal effect.
